Laboratory results reported in patent US10986839B2, “Substituted oxadiazoles for combating phytopathogenic fungi” (BASF SE, priority 2016, dated 2021).
Some results were stated once for a whole list of compounds, not compound by compound.

What was measured:
Type in all cases: in vivo
Phakopsora pachyrhizi [1] = test: Protective control of soy bean rust on soy beans (glass house trial); details: sprayed 2 days before inoculation (protective), soy bean seedlings, untreated plants 90%
Puccinia recondita [2] = test: Curative control of brown rust on wheat (glass house trial); details: 63 ppm active compound, sprayed after inoculation (curative), wheat seedlings; untreated plants 90%
Phakopsora pachyrhizi [3] = test: Curative control of soy bean rust on soy beans (glass house trial); details: 16 ppm active compound, sprayed after inoculation (curative), soy bean seedlings; untreated plants 90%
Puccinia recondita [4] = test: Preventative control of brown rust on wheat (glass house trial); details: 63 ppm active compound, sprayed seven days before inoculation (preventative), wheat seedlings; untreated plants 90%

| SMILES | diseased leaf area (Phakopsora pachyrhizi [1]; 63 ppm active compound) | diseased leaf area (Puccinia recondita [2]) | diseased leaf area (Phakopsora pachyrhizi [3]) | diseased leaf area (Phakopsora pachyrhizi [1]; 16 ppm active compound) | diseased leaf area (Puccinia recondita [4]) |
| --- | --- | --- | --- | --- | --- |
| CC(C)N(Cc1ccc(-c2noc(C(F)(F)F)n2)cc1)C(=S)C1CCC1 [Ex-27, N-isopropyl-N-[[4-[5-(trifluoromethyl)-1,2,4-oxadiazol-3-yl]phenyl]methyl]cyclobutanecarbothioamide] | at most 6% |  |  |  |  |
| CC(C)N(Cc1ccc(-c2noc(C(F)(F)F)n2)cc1)C(=O)C1CCC1 [Ex-10, N-isopropyl-N-[[4-[5-(trifluoromethyl)-1,2,4-oxadiazol-3-yl]phenyl]methyl]cyclobutanecarboxamide] |  | at most 4% | at most 13% | at most 1% | at most 12% |
